Measured values published in the supplement of paper PMC6078165.
Values are relative to the signal before dosing, not to a vehicle control; the signal also falls without drug.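 Fibroblast labels name human fibroblasts: mostly primary ones from tissues such as uterus (C12385, HUF), lung (H6013), bone (Hs27A), adrenal (HADF) and skin (WS1), plus mammary HMF and breast cancer-associated Hs343T. The cancer cells are basal-like or mesenchymal-like triple-negative breast cancer lines. The paper calls a changed response a hit when it shifts by more than 3x the replicate standard deviation. The tissue of the other fibroblasts is not given here.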

Tested on: HCC1143
Assay: relative JC-1 red fluorescence (viability) vs pre-drug, coculture with fibroblast (fraction); higher = more viable cancer cells
Protocol: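 JC-1 labelled TNBC cells cocultured 1:1 (1,500 cells each) with CellTrace Violet stained primary or stromal fibroblasts in 384-well plates in FluoroBrite medium, treated with one of 42 anticancer drugs at 0.1, 1, 10 or 100 uM. JC-1 red fluorescence (mitochondrial integrity in cancer cells only) was read by plate reader every 8 h for 72 h. Values are normalised to each well's pre-drug value. The stock of one drug was tenfold lower, so its dose labels may be too high.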

CC(=O)O[C@H]1C(=O)[C@@]2(C)[C@H]([C@H](OC(=O)c3ccccc3)[C@]3(O)C[C@H](OC(=O)[C@H](O)[C@@H](NC(=O)c4ccccc4)c4ccccc4)C(C)=C1C3(C)C)[C@]1(OC(C)=O)CO[C@@H]1C[C@@H]2O [Paclitaxel]
relative JC-1 red fluorescence
Conditions | 8 h | 16 h | 24 h | 32 h | 40 h | 48 h | 56 h | 64 h | 72 h
1 µM, coculture fibroblast: C12385 | – | – | – | – | – | 0.459 | 0.438 | 0.428 | 0.437
1 µM, coculture fibroblast: H6013 | – | – | – | – | – | 0.538 | 0.513 | 0.504 | 0.443
1 µM, coculture fibroblast: H6019 | – | – | – | – | – | 0.5187 | 0.48 | 0.462 | 0.454
1 µM, coculture fibroblast: H6076 | – | – | – | – | – | 0.614 | 0.586 | 0.571 | 0.597
1 µM, coculture fibroblast: H6231 | – | – | – | – | – | 0.493 | 0.446 | 0.409 | 0.403
1 µM, coculture fibroblast: HADF | – | – | – | – | – | 0.443 | 0.412 | 0.401 | 0.348
1 µM, coculture fibroblast: HCFa | – | – | – | – | – | 0.485 | 0.436 | 0.407 | 0.339
1 µM, coculture fibroblast: HCPF | – | – | – | – | – | 0.529 | 0.4853 | 0.4542 | 0.449
1 µM, coculture fibroblast: HHSteC | – | – | – | – | 0.58 | 0.543 | 0.489 | 0.459 | 0.388
1 µM, coculture fibroblast: HMF | – | – | – | – | 0.539 | 0.493 | 0.445 | 0.422 | 0.431
1 µM, coculture fibroblast: HPFa | – | – | – | – | 0.548 | 0.516 | 0.461 | 0.436 | 0.416
1 µM, coculture fibroblast: HUF | – | – | – | – | 0.554 | 0.535 | 0.486 | 0.472 | 0.452
1 µM, coculture fibroblast: Hs5 | – | – | – | – | 0.596 | 0.576 | 0.543 | 0.516 | 0.531
1 µM, coculture fibroblast: Hs27A | – | – | – | – | 0.716 | 0.767 | 0.7251 | 0.729 | 0.624
1 µM, coculture fibroblast: Hs343T | – | – | – | – | 0.612 | 0.575 | 0.512 | 0.494 | 0.498
1 µM, coculture fibroblast: WS1 | – | – | – | – | 0.403 | 0.354 | 0.309 | 0.283 | 0.275
10 µM, coculture fibroblast: C12385 | 0.896 | 0.844 | 0.799 | 0.707 | 0.643 | 0.591 | 0.551 | 0.52 | 0.509
10 µM, coculture fibroblast: H6013 | 0.818 | 0.731 | 0.702 | 0.681 | 0.603 | 0.596 | 0.57 | 0.565 | 0.516
10 µM, coculture fibroblast: H6019 | 0.8156 | 0.724 | 0.678 | 0.614 | 0.59 | 0.586 | 0.552 | 0.541 | 0.525
10 µM, coculture fibroblast: H6076 | 0.886 | 0.79 | 0.776 | 0.879 | 0.866 | 0.867 | 0.845 | 0.815 | 0.834
10 µM, coculture fibroblast: H6231 | 0.8268 | 0.882 | 0.769 | 0.596 | 0.593 | 0.532 | 0.474 | 0.435 | 0.407
10 µM, coculture fibroblast: HADF | 0.762 | 0.679 | 0.60833 | 0.5886 | 0.4868 | 0.478 | 0.444 | 0.418 | 0.359
10 µM, coculture fibroblast: HCFa | 0.852 | 0.729 | 0.68 | 0.635 | 0.5386 | 0.505 | 0.448 | 0.422 | 0.372
10 µM, coculture fibroblast: HCPF | 0.8349 | 0.8923 | 0.7997 | 0.641 | 0.666 | 0.61 | 0.556 | 0.525 | 0.507
10 µM, coculture fibroblast: HHSteC | 0.8566 | 0.761 | 0.721 | 0.683 | 0.588 | 0.563 | 0.511 | 0.491 | 0.418
10 µM, coculture fibroblast: HMF | 0.831 | 0.887 | 0.765 | 0.638 | 0.593 | 0.529 | 0.46427 | 0.4275 | 0.401
10 µM, coculture fibroblast: HPFa | 0.904 | 0.823 | 0.724 | 0.625 | 0.523 | 0.486 | 0.423 | 0.388 | 0.366
10 µM, coculture fibroblast: HUF | 0.904 | 0.826 | 0.731 | 0.636 | 0.562 | 0.513 | 0.483 | 0.466 | 0.458
10 µM, coculture fibroblast: Hs5 | 0.8961 | 0.862 | 0.84 | 0.83 | 0.727 | 0.677 | 0.649 | 0.618 | 0.633
10 µM, coculture fibroblast: Hs27A | 0.794 | 0.706 | 0.678 | 0.68 | 0.577 | 0.575 | 0.54 | 0.524 | 0.452
10 µM, coculture fibroblast: Hs343T | 0.844 | 0.918 | 0.816 | 0.66 | 0.608 | 0.524 | 0.448 | 0.398 | 0.364
10 µM, coculture fibroblast: WS1 | 0.835 | 0.724 | 0.654 | 0.548 | 0.47 | 0.434 | 0.397 | 0.37033 | 0.364
